The list shows a part of the results. Repeats are few or missing, and single values can be far off.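 Cells were imaged in 1,536-well plates, and nuclei stained with an antibody against cleaved PARP were counted against all DNA-stained nuclei to give the apoptosis fraction. Screening doses were chosen to leave most cells alive, and resting and induced cleaved-PARP levels differ strongly between cell lines.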
Legend:
Test in all cases: cleaved PARP positive nuclei fraction relative to DMSO control; melanoma cells; higher = more apoptosis
Details in all cases: library dose: low library concentration; 72 h
WM115 = system: WM115
WM1716 = system: WM1716
WM1745 = system: WM1745
WM3526 = system: WM3526
WM3619 = system: WM3619
WM451Lu = system: WM451Lu

Row | Structure (SMILES) | cleaved PARP positive nuclei fraction (WM115) [%] | cleaved PARP positive nuclei fraction (WM1716) [%] | cleaved PARP positive nuclei fraction (WM1745) [%] | cleaved PARP positive nuclei fraction (WM3526) [%] | cleaved PARP positive nuclei fraction (WM3619) [%] | cleaved PARP positive nuclei fraction (WM451Lu) [%]
1 | OCc1c[nH]c2ccccc12 [Indole-3-carbinol] + Cc1nc(Nc2ncc(C(=O)Nc3c(C)cccc3Cl)s2)cc(N2CCN(CCO)CC2)n1 [dasatanib] (first compound 0.8 µM, partner dose 0.004 µM) | 89 | 178 | 142 | 70 | 99.4 | 204
2 | CC(C)(C)c1cnc(CSc2cnc(NC(=O)C3CCNCC3)s2)o1 + NCC(=O)Nc1ccc(-n2nc(C(F)(F)F)cc2-c2ccc3c(ccc4ccccc43)c2)cc1 [OSU03012] (first compound 0.01 µM, partner dose 1 µM) | 76.1 | 83.8 | 107 | 86.1 | 106 | 187
3 | Nc1cccc2c1CN(C1CCC(=O)NC1=O)C2=O (configuration not stated) [lenalidomide] + NCC(=O)Nc1ccc(-n2nc(C(F)(F)F)cc2-c2ccc3c(ccc4ccccc43)c2)cc1 [OSU03012] (first compound 1 µM, partner dose 1 µM) | 49.8 | 46.1 | 105 | 119 | 84.7 | 376
4 | OCc1c[nH]c2ccccc12 [Indole-3-carbinol] + O=C1NC(=O)/C(=C/c2ccc(-c3ccc(F)cc3O)o2)S1 [AS252424] (first compound 0.8 µM, partner dose 1 µM) | 119 | 28 | 94.5 | 75.6 | 93.3 | 99.2
5 | Cc1ccc(NC(=O)c2cccc(N(C)C)c2)cc1NC(=O)c1ccc(O)cc1 + O=C(Nc1cccc(Cl)c1)Nc1ncc(CCNc2ncnc3ccsc23)s1 [SNS314] (first compound 2 µM, partner dose 0.0008 µM) | 204 | 89.2 | 93.3 | 54.6 | 88 | 137
6 | C#Cc1cccc(Nc2ncnc3cc(OCCOC)c(OCCOC)cc23)c1 [erlotinib] + NC(=O)Nc1cc(-c2cccc(F)c2)sc1C(=O)N[C@H]1CCCNC1 [AZD7762] (first compound 0.8 µM, partner dose 0.02 µM) | 320 | 150 | 111 | 40.1 | 214 | 186
7 | OCCn1cc(-c2cnc3nnn(Cc4ccc5ncccc5c4)c3n2)cn1 + Cc1cc([N+](=O)[O-])ccc1NS(=O)(=O)c1cc(Cl)ccc1Cl [FH535] (first compound 1 µM, partner dose 1 µM) | 132 | 53.7 | 114 | 70.4 | 80.4 | 164
8 | O=C(Nc1cccc(Cl)c1)Nc1ncc(CCNc2ncnc3ccsc23)s1 + COc1cc(N2CCC(N3CCN(C)CC3)CC2)ccc1Nc1ncc(Cl)c(Nc2ccccc2S(=O)(=O)C(C)C)n1 [NVP-TAE684] (first compound 0.0008 µM, partner dose 0.08 µM) | 412 | 74 | 122 | 137 | 91.7 | 121
9 | OCc1c[nH]c2ccccc12 [Indole-3-carbinol] + Clc1ccc(Nc2nnc(Cc3ccncc3)c3ccccc23)cc1 [vatalanib] (first compound 0.8 µM, partner dose 2 µM) | 129 | 79.1 | 94 | 44.4 | 79.4 | 97.2
10 | COCC[n+]1c2c(n(Cc3cnccn3)c1C)C(=O)c1ccccc1C2=O + O=C(CCCCCCC(=O)Nc1ccccc1)NO [vorinostat] (first compound 0.0004 µM, partner dose 0.08 µM) | 54.6 | 34.1 | 93 | 54.9 | 89.5 | 163
11 | C#Cc1cccc(Nc2ncnc3cc(OCCOC)c(OCCOC)cc23)c1 [erlotinib] + Cn1nnc2c(C(N)=O)ncn2c1=O [temozolomide] (first compound 0.8 µM, partner dose 2 µM) | 105 | 82.4 | 97.3 | 106 | 92.5 | 47.4
12 | Nc1cccc2c1CN(C1CCC(=O)NC1=O)C2=O (configuration not stated) [lenalidomide] + CCCCCCCCCCCC1=C(O)C(=O)C=C(O)C1=O [Embelin] (first compound 1 µM, partner dose 1.2 µM) | 46.1 | 74.7 | 101 | 67.3 | 74.6 | 113
13 | Cn1nnc2c(C(N)=O)ncn2c1=O [temozolomide] + N#Cc1c(O)c2c(-c3ccc(-c4ccccc4O)cc3)csc2[nH]c1=O [A769662] (first compound 2 µM, partner dose 2 µM) | 68.7 | 90.7 | 92.8 | 60.5 | 117 | 56.7
14 | Cc1nc(Nc2ncc(C(=O)Nc3c(C)cccc3Cl)s2)cc(N2CCN(CCO)CC2)n1 [dasatanib] + Oc1cc(-c2nc(-c3ccccc3)[nH]c2-c2ccncc2)ccc1Cl [L779450] (first compound 0.004 µM, partner dose 0.2 µM) | 161 | 157 | 146 | 91.4 | 81.1 | 43.3
15 | CC1(C)NC(=O)N(c2ccc([N+](=O)[O-])c(C(F)(F)F)c2)C1=O [nilutamide] + O=c1cc(-c2cccc3c2Sc2ccccc2S3)oc(N2CCOCC2)c1 [KU55933] (first compound 1 µM, partner dose 1 µM) | 43.1 | 134 | 97 | 56.8 | 96.8 | 38.8
16 | C#Cc1cccc(Nc2ncnc3cc(OCCOC)c(OCCOC)cc23)c1 [erlotinib] + COC(=O)c1sccc1S(=O)(=O)Nc1ccc(Nc2ccccc2)cc1OC [GSK0660] (first compound 0.8 µM, partner dose 1 µM) | 66.7 | 122 | 111 | 66.2 | 74.5 | 74.4
17 | C[C@]1(c2nc3c(C(N)=O)cccc3[nH]2)CCCN1 [Veliparib] + COC(=O)c1sccc1S(=O)(=O)Nc1ccc(Nc2ccccc2)cc1OC [GSK0660] (first compound 1.4 µM, partner dose 1 µM) | 536 | 84.8 | 105 | 58 | 75.2 | 128
18 | COCC[n+]1c2c(n(Cc3cnccn3)c1C)C(=O)c1ccccc1C2=O + CC1(C)NC(=O)N(c2ccc([N+](=O)[O-])c(C(F)(F)F)c2)C1=O [nilutamide] (first compound 0.0004 µM, partner dose 1 µM) | 199 | 83.6 | 193 | 68.3 | 117 | 222
19 | Cn1c(Nc2ccc(C(F)(F)F)cc2)nc2cc(Oc3ccnc(-c4ncc(C(F)(F)F)[nH]4)c3)ccc21 + COc1ccc(COc2ccc(Cc3cnc(N)nc3N)cc2OC)cc1 [GW2580] (first compound 0.08 µM, partner dose 1 µM) | 204 | 76.8 | 123 | 373 | 124 | 70.1
20 | C[C@]1(c2nc3c(C(N)=O)cccc3[nH]2)CCCN1 [Veliparib] + Cc1cc([N+](=O)[O-])ccc1NS(=O)(=O)c1cc(Cl)ccc1Cl [FH535] (first compound 1.4 µM, partner dose 1 µM) | 53.6 | 49.9 | 115 | 35.2 | 90.4 | 175
21 | Cc1ccc(NC(=O)c2cccc(N(C)C)c2)cc1NC(=O)c1ccc(O)cc1 + O=C(Nc1ccccc1)c1cc([N+](=O)[O-])ccc1Cl [GW9662] (first compound 2 µM, partner dose 2 µM) | 242 | 148 | 123 | 240 | 102 | 334
22 | O=C(CCCCCCC(=O)Nc1ccccc1)NO [vorinostat] + Oc1cc(-c2nc(-c3ccccc3)[nH]c2-c2ccncc2)ccc1Cl [L779450] (first compound 0.08 µM, partner dose 0.2 µM) | 135 | 92.7 | 86.9 | 103 | 107 | 56
23 | C=CCn1c(=O)c2cnc(Nc3ccc(N4CCN(C)CC4)cc3)nc2n1-c1cccc(C(C)(C)O)n1 + CCN(CC)CCCCNc1ncc2cc(-c3cc(OC)cc(OC)c3)c(NC(=O)NC(C)(C)C)nc2n1 [PD173074] (first compound 0.02 µM, partner dose 0.1 µM) | 49.4 | 100 | 133 | 95.2 | 138 | 94.9
24 | O=C(CCCCCCC(=O)Nc1ccccc1)NO [vorinostat] + COc1cc(N2CCC(N3CCN(C)CC3)CC2)ccc1Nc1ncc(Cl)c(Nc2ccccc2S(=O)(=O)C(C)C)n1 [NVP-TAE684] (first compound 0.08 µM, partner dose 0.08 µM) | 86.4 | 118 | 91.4 | 70.5 | 90 | 105
25 | Cn1nnc2c(C(N)=O)ncn2c1=O [temozolomide] + O=C1NC(=O)/C(=C/c2ccc(-c3ccc(F)cc3O)o2)S1 [AS252424] (first compound 2 µM, partner dose 1 µM) | 189 | 206 | 89.5 | 82.5 | 80 | 43.3
26 | C=CCNC1=C2C[C@@H](C)C[C@H](OC)[C@H](O)[C@@H](C)/C=C(\C)[C@H](OC(N)=O)[C@@H](OC)/C=C\C=C(/C)C(=O)NC(=CC1=O)C2=O [Tanespimycin] + CCN(CC)CCCCNc1ncc2cc(-c3cc(OC)cc(OC)c3)c(NC(=O)NC(C)(C)C)nc2n1 [PD173074] (first compound 0.002 µM, partner dose 0.1 µM) | 122 | 237 | 262 | 66.3 | 97.4 | 109
27 | Clc1ccc(Nc2nnc(Cc3ccncc3)c3ccccc23)cc1 [vatalanib] + Cc1ccc(NC(=O)c2cccc(N(C)C)c2)cc1NC(=O)c1ccc(O)cc1 [ZM336372] (first compound 2 µM, partner dose 2 µM) | 47.8 | 40.5 | 105 | 50.2 | 115 | 102

Look-ups from above:
Value for O=C(CCCCCCC(=O)Nc1ccccc1)NO [vorinostat] + COc1cc(N2CCC(N3CCN(C)CC3)CC2)ccc1Nc1ncc(Cl)c(Nc2ccccc2S(=O)(=O)C(C)C)n1 [NVP-TAE684] (first compound 0.08 µM, partner dose 0.08 µM) under cleaved PARP positive nuclei fraction (WM1716) [%]: 118
Value for C[C@]1(c2nc3c(C(N)=O)cccc3[nH]2)CCCN1 [Veliparib] + Cc1cc([N+](=O)[O-])ccc1NS(=O)(=O)c1cc(Cl)ccc1Cl [FH535] (first compound 1.4 µM, partner dose 1 µM) under cleaved PARP positive nuclei fraction (WM3619) [%]: 90.4
